Data reported in PubChem BioAssay AID1347076 (National Center for Advancing Translational Sciences (NCATS), 2019).
Among all 400,000 compounds or so, about 13,000 (3.2%) were called active. This list was built around the results that the source calls inconclusive (neither active nor inactive); the mix of calls is not that of the screen. Calls come from the whole dose curve; as a rule, active = well fitted cell-killing curve with a large enough effect; inconclusive = small, poorly fitted or top-dose-only effect, or effect the other way; inactive = flat fitted curve, though single readings scatter. Where the call is inconclusive, the potency comes from a doubtful curve fit.

Experiment: qHTS assay for MDR1-selective chemotherapeutics: Primary screen using the drug-selected MDR subline cells KB-V1; note: nearly all actives have a fitted effect of over 60% in size
Conditions: KB-V1 MDR cells viability, CellTiter-Glo, 72 h; series mostly up to 46.1 µM
Method in brief: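 KB-V1 cells (P-gp-expressing MDR subline of KB-3-1) in phenol-red-free DMEM with 10% FBS were exposed to library compounds over a concentration series for 72 h at 37 degrees C. Viability read by CellTiter-Glo luminescence; concentration-effect curves fitted after normalization.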
Potency is the fitted concentration of half-maximal effect.

Compound	Potency
Cc1cc(C)n2ncc(C(=O)Nc3ccccc3)c2n1	inconclusive: 29.1 µM [rising, single point]
CCN(CC)S(=O)(=O)c1ccc(NC(=O)CN(c2ccccc2)S(=O)(=O)N(C)C)cc1	inconclusive: 13 µM [cytotoxic, single point]
CCS(=O)(=O)c1ncc(N(Cc2ccccc2)Cc2ccco2)c(C(=O)Nc2cccc(Cl)c2C)n1	inconclusive: 23.1 µM [cytotoxic, partial curve, poor fit]
COc1ccccc1C(=O)Nc1ccc2nc(SCC(=O)N(C)c3ccccc3)sc2c1	inactive
CCOC(=O)c1c(C2COc3ccccc3O2)csc1NC(=O)c1ccccc1 (stereo unspecified)	inconclusive: 7.31 µM [cytotoxic, partial curve]
Cc1cccc(NC(=O)/C(C#N)=C/c2ccc(Sc3ccccc3)o2)c1C	inactive
COc1cc(CO)ccc1Oc1nnnn1-c1ccc(C(N)=O)cc1	inconclusive: 7.31 µM [rising, partial curve, poor fit]
CS(=O)(=O)c1ccc(C(=O)NCCN2C(=O)S/C(=C\c3cccnc3)C2=O)cc1[N+](=O)[O-]	inactive
CCCCCCC(=O)N=Nc1c(O)[nH]c2ccc([N+](=O)[O-])cc12	inactive
Cc1sc(NC(=O)CSc2ncn(-c3ccccc3)n2)nc1-c1ccccc1	active: 23.1 µM
CCCCn1cnc2c(SCc3ccccc3Cl)nc(N)nc21	inactive
CC(=O)NCCc1nc2cc(NC(=O)c3ccc(F)cc3)ccc2n1C	inconclusive: 18.4 µM [rising, single point]
COc1cccc2cc(/C(C)=N/NC(=O)c3ccco3)oc12	inconclusive: 29.1 µM [cytotoxic, single point]
Cc1ccc(/C=C/C(=O)NN2CCN(C)CC2)cc1	inactive
Cc1ccc(C)c(NC(=O)CN(C)C(=O)c2cc(-c3cccs3)nn2-c2ccccc2)c1	inconclusive: 5.8 µM [cytotoxic, full curve]
NCCCCCc1nnc(SCc2ccccc2Cl)o1	inconclusive: 23.1 µM [cytotoxic, single point]
COc1ccc(C)cc1S(=O)(=O)N1CCC(C)CC1	active: 18.4 µM
COc1cc(N)c(Cl)cc1C(=O)OCC(=O)NC1CCCC1	inconclusive: 29.1 µM [cytotoxic, single point]
CCNC(=O)c1cc2c(c(-c3cccc(-c4cccc(C(=O)N(C)C)c4)c3)n1)[C@H](CCO)N(S(=O)C(C)(C)C)C2 (stereo partly specified)	inactive
O=C(c1ccc(Cl)cc1)C1CCCN(C(=O)c2csnn2)C1 (stereo unspecified)	inconclusive: 29.1 µM [cytotoxic, single point]
c1coc(CNc2nc3ccccc3n2CCN2CCOCC2)c1	inconclusive: 16.4 µM [cytotoxic, partial curve]
CCOc1ccc2[nH]c(=O)c(CN(Cc3ccco3)C(=O)c3ccc(Br)cc3)cc2c1	active: 23.1 µM
COc1ccc(CCNC(=O)c2ccc3c(c2)N(Cc2ccccc2)C(=O)c2ccccc2S3=O)cc1OC (stereo unspecified)	inconclusive: 29.1 µM [cytotoxic, single point]
CCOc1ccccc1OCC(=O)Nc1ccc(S(=O)(=O)Nc2nc(C)cc(C)n2)cc1	active: 18.4 µM

Compound	Potency
COc1cccc(C(=O)NCCCNc2nc3cc(C)cc(C)c3cc2C#N)c1	inconclusive: 18.4 µM [cytotoxic, single point]
Cc1ccc(-n2ncc(C(=O)N3CCN(c4cc(Cl)ccc4C)CC3)c2C2CCN(C(=O)OC(C)(C)C)CC2)cc1	inactive
O=C(COC(=O)c1c2c(nc3ccccc13)CCN(Cc1ccccc1)C2)Nc1c(F)cccc1F	active: 18.4 µM
Cc1ccc(S(=O)(=O)N2CCCCC2)cc1C(=O)N(CCc1ccccc1)Cc1ccccc1	inconclusive: 29.1 µM [cytotoxic, single point]
CC(=O)NC(Cc1ccccc1)c1ccc2c(c1)OCCCO2 (stereo unspecified)	inconclusive: 16.4 µM [cytotoxic, partial curve, poor fit]
Fc1ccc(C(c2nnc(-c3ccccc3)o2)N2CCN(c3cccc(Cl)c3)CC2)cc1 (stereo unspecified)	inconclusive: 4.11 µM [cytotoxic, full curve]
Nc1c(Cl)cc(S(N)(=O)=O)cc1S(N)(=O)=O	inconclusive: 6.51 µM [rising, full curve]
Cc1cccc(C(=O)NCc2ccc(S(N)(=O)=O)cc2)c1[N+](=O)[O-]	inactive
CN1OC[C@@H]2CN(C(=O)CCc3ccccc3)[C@H](c3ccc(N4CCCCC4)cc3)C[C@@H]21	inconclusive: 14.6 µM [cytotoxic, partial curve, poor fit]
CCC1Sc2ccc(S(=O)(=O)Nc3ccc(OC)c(OC)c3)cc2NC1=O (stereo unspecified)	inactive
COc1ccccc1C(=O)CN1C(=O)NC2(CCc3ccccc32)C1=O (stereo unspecified)	inconclusive: 23.1 µM [cytotoxic, single point]
CCOC(=O)c1ccc(NC(=O)/C=C/c2cccs2)cc1	inactive
CCNC(=O)C1(C)CCN(C(=O)c2ccc(OC(F)F)cc2)C1 (stereo unspecified)	inactive
CC1Cc2ccccc2N1Cc1nc2cc(Cl)ccc2c(=O)[nH]1 (stereo unspecified)	inconclusive: 23.1 µM [cytotoxic, single point]
CC(C)Cc1nc(SCc2cccnc2)c2c(=O)n(C)c(=O)n(C)c2n1	inconclusive: 9.2 µM [cytotoxic, partial curve, poor fit]
CC(=O)NC12CC3CC(C1)CC(C(=O)Nc1cccc(S(=O)(=O)N4CCCCCC4)c1)(C3)C2	active: 14.6 µM
Cc1cc(OCC(=O)Nc2ccncc2)cc(C)c1Cl	inconclusive: 3.26 µM [cytotoxic, full curve]
CC1(C(=O)NCC(F)(F)F)CCN1C(=O)C1(c2ccccc2)CC1 (stereo unspecified)	inactive
Cc1ccc(Nc2c(-c3c[nH]c4ccccc34)nc3ccccn23)cc1	inactive
Cc1cc(Cl)ccc1N=c1ssnc1Cl	inactive
O=C(Nc1ccccc1N1CCN(c2ccccc2)CC1)c1ccccc1F	inconclusive: 9.2 µM [cytotoxic, partial curve]
N=C(c1cccc([N+](=O)[O-])c1)N1CCCCCC1	inconclusive: 29.1 µM [rising, single point]
Cc1ccccc1Oc1nc2c(C)cccn2c(=O)c1/C=C(\C#N)C(=O)NC1CCS(=O)(=O)C1 (stereo unspecified)	inactive
CCOC(=O)C1(CCCc2ccccc2)CCN(C2CCN(C(C)=O)CC2)CC1	inactive

Compound	Potency
CCN(C(=O)COC(=O)c1cccs1)c1c(N)n(Cc2ccccc2)c(=O)[nH]c1=O	inactive
CCN(CC)S(=O)(=O)c1ccc(OC)c(NC(=O)c2sc3ccccc3c2Cl)c1	inactive
COCCCNc1ncnc2ccc(C)cc12	inconclusive: 29.1 µM [cytotoxic, single point]
COc1c(/C=N/NC(N)=S)c(C)nn1-c1ccccc1	active: 9.2 µM
CC1CCN(S(=O)(=O)c2ccc(NC(=O)CN3CCCC(C)C3)cc2)CC1 (stereo unspecified)	inactive
O=[N+]([O-])c1ccc2nc(NCCCO)nc(-c3ccccc3)c2c1	inconclusive: 29.1 µM [cytotoxic, single point]
COc1cccc(N(CC(=O)NC2CCCCC2)C(=O)c2snc(C(N)=O)c2N)c1	inconclusive: 16.4 µM [cytotoxic, single point]
CCN(C(=O)Cn1c(=O)oc2ccccc21)c1c(N)n(Cc2ccccc2)c(=O)[nH]c1=O	inconclusive: 11.6 µM [rising, partial curve, poor fit]
COc1cc(S(=O)(=O)N(Cc2cccs2)CC2CCCO2)ccc1-n1cnnn1 (stereo unspecified)	inconclusive: 20.6 µM [cytotoxic, partial curve]
Cc1c(C(=O)OC(C)C)sc(NC(=O)C2CCCO2)c1C(=O)OC(C)C (stereo unspecified)	inconclusive: 23.1 µM [cytotoxic, single point]
Cc1cccc(NC(=O)c2oc3ccccc3c2NC(=O)c2cc(=O)c3ccccc3o2)c1	inconclusive: 23.1 µM [rising, single point]
Cc1ccc(S(=O)(=O)Nc2nc3ccccc3nc2Nc2cccc(S(=O)(=O)N3CCCC3)c2)cc1	inconclusive: 14.6 µM [cytotoxic, partial curve]
COc1cc(C(C)=O)ccc1OCC(=O)Nc1cc(C)on1	inconclusive: 29.1 µM [cytotoxic, single point]
O=c1c(/C=N/O)coc2ccc3ccccc3c12	inconclusive: 29.1 µM [cytotoxic, single point]
O=C(CCCN1C(=O)/C(=C/c2cccc(Br)c2)SC1=S)Nc1ccccn1	active: 14.6 µM
CCc1cc2c(=O)nc3n(c2s1)Cc1ccccc1/C3=C(/O)c1cccc([N+](=O)[O-])c1	inactive
NC(=O)c1nsc(C(=O)N(CC(=O)NC2CCCCC2)Cc2ccc(F)cc2)c1N	inactive
COc1cccc(-c2csc3ncnc(Sc4nnnn4C)c23)c1	inconclusive: 16.4 µM [cytotoxic, single point]
Cc1ccc(-n2ccc(=O)c(C(=O)Nc3ccc(S(=O)(=O)N4CCOCC4)cc3)n2)cc1	inactive
COc1ccc(-n2c(C)c(C)c3c(N)ncnc32)cc1	inactive
CSc1cccc(NC(=S)NC(=O)CCc2ccccc2)c1	inconclusive: 18.4 µM [cytotoxic, partial curve, poor fit]
CCc1ccccc1Nc1nn2c(=O)c3ccc(C(=O)NCc4ccccn4)cc3nc2s1	inactive
Cc1cccc(N(CC(=O)NC2CCCC2)C(=O)c2nsc(Cl)c2Cl)c1C	inconclusive: 4.61 µM [cytotoxic, full curve, poor fit]

An excerpt of the results above, for reference:
Compound	Potency
COc1cc(C(C)=O)ccc1OCC(=O)Nc1cc(C)on1	inconclusive: 29.1 µM [cytotoxic, single point]
O=c1c(/C=N/O)coc2ccc3ccccc3c12	inconclusive: 29.1 µM [cytotoxic, single point]
O=C(CCCN1C(=O)/C(=C/c2cccc(Br)c2)SC1=S)Nc1ccccn1	active: 14.6 µM
CCc1cc2c(=O)nc3n(c2s1)Cc1ccccc1/C3=C(/O)c1cccc([N+](=O)[O-])c1	inactive
